This series can be described thus: general procedure: Fmoc solid-phase peptide synthesis; H-rink amide resin (PCAS 0.53 mmol substitution); HBTU. The conditions noted are these: whole synthesis, Agilent 1260 HPLC, ZORBAX 300SB-C3.

In the case of “Ac-KVK EVF FVK EVF FVK EVY-NH2 (KVKEVFFVKEVFFVKEVY; beta-amino acids; N-acetyl, C-amide)”, the “final HPLC purity” value is recorded as 90% or above.

The values above are taken from patent publication US9650419B2 (Research & Business Foundation SUNGKYUNKWAN UNIVERSITY, priority 2014, dated 2017).
